For 4 molecules, binding results are on record in PMC5302818.

No constants are given. Whether binding was seen depends on the method and setting. For part of these data: Binding calls can cover weak binding; strength is not graded here. For part of these data: In cells and extracts the contact can be indirect. For part of these data: Where a sequence is shown, tags or fusion partners need not be part of it.

The target in test [1] is BIR1 kinase domain-maltose-binding protein (BIR1 kinase domain, 303-620 aa) (Arabidopsis). Briefly: pull-down; 10 μg BIR1 kinase domain-MBP on amylose resin, incubated with 2 μg of prey in 50 mM Tris-HCl pH 7.5, 100 mM NaCl, 0.1% Triton X-100 at 4°C for 4 hrs; washed with 200 mM NaCl buffer; immunoblot; both purified. (In general: A western blot detects proteins with antibodies after separation by electrophoresis.)

The target in test [2] is BIR1-CFP (Arabidopsis). The test can be described thus: FRET or BRET; FRET by acceptor photobleaching, CFP donor and YFP acceptor, transient expression in N. benthamiana leaves; time courses after flg22 (1 μM or 100 nM). A general note: In BRET a luciferase serves as donor, and the signal depends on an acceptor being close.
For test [3], the target named is BIR1-CFP (Arabidopsis). Briefly: condition: only 3 min after addition of flg22 (1 μM); FRET or BRET; FRET by acceptor photobleaching, CFP donor and YFP acceptor, transient expression in N. benthamiana leaves; 3 min after addition of flg22 (1 μM).
Test [4] concerns the target BIR1-cYFP (BAK1-interacting receptor-like kinase 1) (Arabidopsis). The test can be described thus: split reporter; BiFC with nYFP and cYFP halves, transient expression in N. benthamiana leaves, confocal imaging; cells without flg22.
Test [5] has the same target. The test can be described thus: split reporter; BiFC with nYFP and cYFP halves, transient expression in N. benthamiana leaves, confocal imaging on day 4 to 6 after infiltration; flg22 at various concentrations and times where indicated.
In test [6] the target is BIR1-cYFP (in Arabidopsis mesophyll protoplasts) (Arabidopsis). Briefly: split reporter; BiFC in Arabidopsis Col-0 mesophyll protoplasts, confocal imaging two days after transformation.

B1: AtGPA1 (Arabidopsis thaliana Gα subunit), recombinant (protein, UniProt P18064 1-383)
chain: MGLLCSRSRHHTEDTDENTQAAEIERRIEQEAKAEKHIRKLLLLGAGESGKSTIFKQIKLLFQTGFDEGELKSYVPVIHANVYQTIKLLHDGTKEFAQNETDSAKYMLSSESIAIGEKLSEIGGRLDYPRLTKDIAEGIETLWKDPAIQETCARGNELQVPDCTKYLMENLKRLSDINYIPTKEDVLYARVRTTGVVEIQFSPVGENKKSGEVYRLFDVGGQRNERRKWIHLFEGVTAVIFCAAISEYDQTLFEDEQKNRMMETKELFDWVLKQPCFEKTSFMLFLNKFDIFEKKVLDVPLNVCEWFRDYQPVSSGKQEIEHAYEFVKKKFEELYYQNTAPDRVDRVFKIYRTTALDQKLVKKTFKLVDETLRRRNLLEAGLL
Regarding B1, the binding result in test [1] was “binds”.

B2: AtRGS1-YFP (protein, UniProt Q8H1F2 1-459)
chain: MASGCALHGGCPSDYVAVAISVICFFVLLSRSVLPCLIHKAPRTNSSSFWIPVIQVISSFNLLFSIMMSVNLLRFRTKHWWRYCYLWAVWIEGPLGFGLLMSCRITQAFQLYFIFVKKRLPPVKSYIFLPLVLLPWIFGAAIIHATKPLNDKCHMGLQWTFPVAGLHALYVLALIAFTRAVRHVEFRFDELRDLWKGILVSATSIVIWVTAFVLNEIHEEISWLQVASRFVLLVTGGILVVVFFSISSNQPLLSQISLKKRQNFEFQRMGQALGIPDSGLLFRKEEFRPVDPNEPLDKLLLNKRFRHSFMEFADSCYAGETLHFFEEVYEHGKIPEDDSIRRIYMARHIMEKFIVAGAEMELNLSHKTRQEILTTQDLTHTDLFKNALNEVMQLIKMNLVRDYWSSIYFIKFKEEESCHEAMHKEGYSFSSPRLSSVQGSDDPFYQEHMSKSSRCSSPG
For the molecule B2, the figures for the binding result with BIR1-CFP (Arabidopsis) [2] and with BIR1-CFP (Arabidopsis) [3] were “binds” and “no binding”, respectively.

B3: AtRGS1-nYFP (Arabidopsis thaliana Regulator of G Signaling 1) (protein, UniProt Q8H1F2 1-459)
chain: MASGCALHGGCPSDYVAVAISVICFFVLLSRSVLPCLIHKAPRTNSSSFWIPVIQVISSFNLLFSIMMSVNLLRFRTKHWWRYCYLWAVWIEGPLGFGLLMSCRITQAFQLYFIFVKKRLPPVKSYIFLPLVLLPWIFGAAIIHATKPLNDKCHMGLQWTFPVAGLHALYVLALIAFTRAVRHVEFRFDELRDLWKGILVSATSIVIWVTAFVLNEIHEEISWLQVASRFVLLVTGGILVVVFFSISSNQPLLSQISLKKRQNFEFQRMGQALGIPDSGLLFRKEEFRPVDPNEPLDKLLLNKRFRHSFMEFADSCYAGETLHFFEEVYEHGKIPEDDSIRRIYMARHIMEKFIVAGAEMELNLSHKTRQEILTTQDLTHTDLFKNALNEVMQLIKMNLVRDYWSSIYFIKFKEEESCHEAMHKEGYSFSSPRLSSVQGSDDPFYQEHMSKSSRCSSPG
With B3, the binding entry in test [4] is reported as “no binding (only without flg22)”; in test [5] it was “binds”.

B4: AtRGS1-nYFP (in Arabidopsis mesophyll protoplasts) (protein, UniProt Q8H1F2 1-459)
chain: MASGCALHGGCPSDYVAVAISVICFFVLLSRSVLPCLIHKAPRTNSSSFWIPVIQVISSFNLLFSIMMSVNLLRFRTKHWWRYCYLWAVWIEGPLGFGLLMSCRITQAFQLYFIFVKKRLPPVKSYIFLPLVLLPWIFGAAIIHATKPLNDKCHMGLQWTFPVAGLHALYVLALIAFTRAVRHVEFRFDELRDLWKGILVSATSIVIWVTAFVLNEIHEEISWLQVASRFVLLVTGGILVVVFFSISSNQPLLSQISLKKRQNFEFQRMGQALGIPDSGLLFRKEEFRPVDPNEPLDKLLLNKRFRHSFMEFADSCYAGETLHFFEEVYEHGKIPEDDSIRRIYMARHIMEKFIVAGAEMELNLSHKTRQEILTTQDLTHTDLFKNALNEVMQLIKMNLVRDYWSSIYFIKFKEEESCHEAMHKEGYSFSSPRLSSVQGSDDPFYQEHMSKSSRCSSPG
Consider B4, for which the binding result in test [6] is reported as “binds”.
